The other results are listed elsewhere or left out. Hit calls seldom repeat between salt and free forms of one compound.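 Kinases, fused to nanoluciferase, were expressed in K562 cells; luminescence was measured every 4 h from 2 to 18 h as percent of control (DMSO = 100%, positive control = 0%). A time point is decreased if signal falls significantly (2 sigma). Hits were called by the authors by a rule that is not shown; the count of time points alone does not decide it.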
Assays:
Test in all cases: kinase-Nluc reporter destabilization hit call (1 = scored as downregulated) (binary); higher = compound decreases kinase abundance
Details in all cases: K562; 2-18 h
EGFR = EGFR (UniProt P00533)
EGFR_G719S = EGFR_G719S (UniProt P00533)
EGFR_G719S_T790M = EGFR_G719S_T790M (UniProt P00533)
EGFR_L718V = EGFR_L718V (UniProt P00533)
EGFR_L858R = EGFR_L858R (UniProt P00533)
EGFR_L861Q = EGFR_L861Q (UniProt P00533)
EGFR_T790M = EGFR_T790M (UniProt P00533)
EPHA2 = EPHA2 (UniProt P29317)
ERBB3 = ERBB3 (UniProt P21860)
[1] = molecular target: ERBB4_R711C (clone: ERBB4_mut) (UniProt Q15303)
ERN1 = ERN1 (UniProt O75460)
FGFR1 = FGFR1 (UniProt P11362)
FGFR2 = FGFR2 (UniProt P21802)
FGFR3 = FGFR3 (UniProt P22607)
FGR = FGR (UniProt P09769)
FLT3 = FLT3 (UniProt P36888)
FYN = FYN (UniProt P06241)
GSK3A = GSK3A (UniProt P49840)
HER2 = HER2 (UniProt P04626)
INSRR = INSRR (UniProt P14616)

Chains of the proteins cited; added tags and fusions are not shown. Lines headed by an entry give the natural chain unless they say otherwise; changes in a name come on top.
UniProt O75460: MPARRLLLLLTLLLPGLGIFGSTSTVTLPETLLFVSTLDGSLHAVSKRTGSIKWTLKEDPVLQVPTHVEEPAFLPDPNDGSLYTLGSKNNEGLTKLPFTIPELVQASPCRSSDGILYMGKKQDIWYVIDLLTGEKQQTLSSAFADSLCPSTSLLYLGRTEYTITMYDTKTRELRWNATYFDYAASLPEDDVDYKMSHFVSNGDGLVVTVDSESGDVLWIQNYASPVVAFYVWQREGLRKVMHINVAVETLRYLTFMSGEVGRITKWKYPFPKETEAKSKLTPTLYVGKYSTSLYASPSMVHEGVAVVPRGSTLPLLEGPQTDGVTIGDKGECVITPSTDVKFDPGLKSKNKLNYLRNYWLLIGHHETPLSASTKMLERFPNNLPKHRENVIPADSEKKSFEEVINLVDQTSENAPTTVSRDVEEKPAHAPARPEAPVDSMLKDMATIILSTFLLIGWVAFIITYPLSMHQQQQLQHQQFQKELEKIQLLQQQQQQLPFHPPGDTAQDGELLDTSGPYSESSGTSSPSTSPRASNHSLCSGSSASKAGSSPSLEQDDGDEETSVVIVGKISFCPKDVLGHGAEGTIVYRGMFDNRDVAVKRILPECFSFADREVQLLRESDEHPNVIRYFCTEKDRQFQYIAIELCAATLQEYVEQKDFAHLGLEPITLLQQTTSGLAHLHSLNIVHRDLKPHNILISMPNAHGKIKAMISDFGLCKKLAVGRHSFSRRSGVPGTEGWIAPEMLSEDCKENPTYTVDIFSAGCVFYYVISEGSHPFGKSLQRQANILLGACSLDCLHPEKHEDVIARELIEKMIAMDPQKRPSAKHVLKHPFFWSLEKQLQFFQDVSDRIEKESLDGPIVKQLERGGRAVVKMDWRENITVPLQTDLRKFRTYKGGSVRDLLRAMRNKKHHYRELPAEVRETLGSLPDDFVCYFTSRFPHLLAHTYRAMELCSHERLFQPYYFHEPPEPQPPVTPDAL
UniProt P11362, whole entry, looked up: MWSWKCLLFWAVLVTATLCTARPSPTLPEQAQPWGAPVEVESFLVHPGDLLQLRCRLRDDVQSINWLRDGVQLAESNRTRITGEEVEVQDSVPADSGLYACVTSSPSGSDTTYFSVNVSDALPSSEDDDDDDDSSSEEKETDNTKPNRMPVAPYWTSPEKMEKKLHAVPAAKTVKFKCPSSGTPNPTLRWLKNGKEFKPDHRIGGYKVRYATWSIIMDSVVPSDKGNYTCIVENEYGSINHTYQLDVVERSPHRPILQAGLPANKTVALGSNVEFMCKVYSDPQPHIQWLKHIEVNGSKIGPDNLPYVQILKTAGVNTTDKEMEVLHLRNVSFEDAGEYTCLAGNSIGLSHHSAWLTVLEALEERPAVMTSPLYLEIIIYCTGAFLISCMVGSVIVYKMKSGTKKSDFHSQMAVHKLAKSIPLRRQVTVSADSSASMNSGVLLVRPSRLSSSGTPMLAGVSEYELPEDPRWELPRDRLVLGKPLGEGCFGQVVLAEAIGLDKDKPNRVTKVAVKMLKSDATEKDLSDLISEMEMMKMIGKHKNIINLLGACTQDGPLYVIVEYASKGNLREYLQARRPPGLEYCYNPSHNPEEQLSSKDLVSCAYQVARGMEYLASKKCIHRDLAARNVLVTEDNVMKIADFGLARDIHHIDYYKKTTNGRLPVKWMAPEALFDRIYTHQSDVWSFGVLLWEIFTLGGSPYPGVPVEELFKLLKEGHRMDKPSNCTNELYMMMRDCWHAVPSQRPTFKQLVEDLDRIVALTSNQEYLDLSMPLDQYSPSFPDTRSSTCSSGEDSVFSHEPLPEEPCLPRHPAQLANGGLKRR
UniProt P21802, whole entry, looked up: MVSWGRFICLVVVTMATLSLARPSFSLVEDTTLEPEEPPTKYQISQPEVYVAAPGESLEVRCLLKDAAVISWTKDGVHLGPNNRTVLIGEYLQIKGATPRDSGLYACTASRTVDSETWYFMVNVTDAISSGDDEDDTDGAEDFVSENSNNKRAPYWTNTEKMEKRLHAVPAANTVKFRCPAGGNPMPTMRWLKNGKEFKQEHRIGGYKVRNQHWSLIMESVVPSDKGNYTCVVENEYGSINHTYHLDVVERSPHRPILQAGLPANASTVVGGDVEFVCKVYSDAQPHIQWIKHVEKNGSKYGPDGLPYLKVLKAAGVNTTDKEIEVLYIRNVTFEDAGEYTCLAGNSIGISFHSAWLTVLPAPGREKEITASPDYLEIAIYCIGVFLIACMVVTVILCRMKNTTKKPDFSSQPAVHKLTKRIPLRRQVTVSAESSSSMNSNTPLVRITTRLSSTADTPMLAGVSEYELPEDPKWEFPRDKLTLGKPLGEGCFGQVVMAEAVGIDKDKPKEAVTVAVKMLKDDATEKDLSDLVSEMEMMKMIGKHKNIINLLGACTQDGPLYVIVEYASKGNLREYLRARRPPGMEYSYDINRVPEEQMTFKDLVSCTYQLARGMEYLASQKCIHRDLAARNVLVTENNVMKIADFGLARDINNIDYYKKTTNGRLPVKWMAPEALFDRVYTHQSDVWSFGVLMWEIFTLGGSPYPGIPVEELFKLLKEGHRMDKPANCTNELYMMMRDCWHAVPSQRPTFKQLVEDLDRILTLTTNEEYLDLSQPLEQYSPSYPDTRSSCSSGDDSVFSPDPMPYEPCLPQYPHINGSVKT
UniProt P22607, whole entry, looked up: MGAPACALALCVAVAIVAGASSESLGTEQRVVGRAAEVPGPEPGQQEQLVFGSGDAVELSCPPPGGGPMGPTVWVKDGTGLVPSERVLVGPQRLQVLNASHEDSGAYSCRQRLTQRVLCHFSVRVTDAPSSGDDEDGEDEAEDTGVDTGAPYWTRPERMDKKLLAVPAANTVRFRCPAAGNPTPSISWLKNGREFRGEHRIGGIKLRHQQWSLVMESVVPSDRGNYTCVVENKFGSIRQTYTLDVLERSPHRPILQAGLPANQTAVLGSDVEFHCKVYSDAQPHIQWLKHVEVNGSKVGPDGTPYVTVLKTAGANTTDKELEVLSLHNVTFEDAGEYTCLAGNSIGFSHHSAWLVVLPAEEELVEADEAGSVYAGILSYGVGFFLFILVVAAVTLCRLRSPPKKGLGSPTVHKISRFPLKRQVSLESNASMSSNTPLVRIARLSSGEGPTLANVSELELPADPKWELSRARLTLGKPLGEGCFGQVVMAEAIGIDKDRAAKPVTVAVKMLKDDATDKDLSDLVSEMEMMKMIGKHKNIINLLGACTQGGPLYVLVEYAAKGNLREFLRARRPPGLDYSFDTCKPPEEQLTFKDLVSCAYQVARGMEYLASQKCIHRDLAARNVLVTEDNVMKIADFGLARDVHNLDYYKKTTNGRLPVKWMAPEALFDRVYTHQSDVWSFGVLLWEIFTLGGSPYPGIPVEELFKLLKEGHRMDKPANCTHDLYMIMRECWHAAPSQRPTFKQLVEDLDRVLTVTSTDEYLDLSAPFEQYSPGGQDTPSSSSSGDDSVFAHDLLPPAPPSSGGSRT
UniProt P36888, whole entry: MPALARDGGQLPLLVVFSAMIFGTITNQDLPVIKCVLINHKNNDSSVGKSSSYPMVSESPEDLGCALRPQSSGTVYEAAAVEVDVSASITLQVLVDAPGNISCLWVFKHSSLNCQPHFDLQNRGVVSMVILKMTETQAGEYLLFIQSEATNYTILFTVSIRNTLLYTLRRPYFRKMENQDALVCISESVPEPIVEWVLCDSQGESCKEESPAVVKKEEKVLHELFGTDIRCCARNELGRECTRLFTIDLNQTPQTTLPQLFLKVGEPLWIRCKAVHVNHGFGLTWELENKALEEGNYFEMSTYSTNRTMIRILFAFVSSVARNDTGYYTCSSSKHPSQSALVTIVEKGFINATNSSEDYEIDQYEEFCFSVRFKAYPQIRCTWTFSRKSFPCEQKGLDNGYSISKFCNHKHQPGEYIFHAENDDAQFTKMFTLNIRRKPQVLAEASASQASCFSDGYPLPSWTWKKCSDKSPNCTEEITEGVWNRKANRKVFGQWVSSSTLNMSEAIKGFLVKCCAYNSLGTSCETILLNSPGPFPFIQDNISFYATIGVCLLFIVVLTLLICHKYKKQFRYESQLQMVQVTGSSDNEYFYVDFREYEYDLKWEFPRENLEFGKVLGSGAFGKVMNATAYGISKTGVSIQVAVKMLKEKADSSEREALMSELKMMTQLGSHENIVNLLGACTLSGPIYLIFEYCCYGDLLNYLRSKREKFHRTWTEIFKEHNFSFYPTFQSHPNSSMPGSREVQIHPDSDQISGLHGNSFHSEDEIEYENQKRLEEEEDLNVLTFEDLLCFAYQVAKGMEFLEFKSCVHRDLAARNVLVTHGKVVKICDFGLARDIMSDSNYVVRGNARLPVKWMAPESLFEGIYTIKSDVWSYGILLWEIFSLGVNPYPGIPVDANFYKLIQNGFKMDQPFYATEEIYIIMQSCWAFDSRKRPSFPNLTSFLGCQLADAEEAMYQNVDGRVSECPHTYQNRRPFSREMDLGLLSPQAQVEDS
UniProt P06241, whole entry, looked up: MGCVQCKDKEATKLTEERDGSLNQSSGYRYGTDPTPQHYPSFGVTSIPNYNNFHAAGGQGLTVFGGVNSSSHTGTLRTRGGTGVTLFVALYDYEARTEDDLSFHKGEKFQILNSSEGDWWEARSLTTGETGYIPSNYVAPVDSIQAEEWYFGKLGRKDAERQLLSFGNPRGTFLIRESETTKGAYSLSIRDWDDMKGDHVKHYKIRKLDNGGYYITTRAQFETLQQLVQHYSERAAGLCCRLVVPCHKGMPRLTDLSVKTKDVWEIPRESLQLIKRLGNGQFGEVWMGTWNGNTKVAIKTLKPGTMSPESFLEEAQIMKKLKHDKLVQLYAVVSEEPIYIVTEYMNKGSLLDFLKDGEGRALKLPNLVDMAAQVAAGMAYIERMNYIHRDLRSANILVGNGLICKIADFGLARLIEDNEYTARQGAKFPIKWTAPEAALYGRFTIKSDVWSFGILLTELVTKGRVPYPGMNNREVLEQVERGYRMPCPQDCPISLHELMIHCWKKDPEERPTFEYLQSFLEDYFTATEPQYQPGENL
UniProt P14616: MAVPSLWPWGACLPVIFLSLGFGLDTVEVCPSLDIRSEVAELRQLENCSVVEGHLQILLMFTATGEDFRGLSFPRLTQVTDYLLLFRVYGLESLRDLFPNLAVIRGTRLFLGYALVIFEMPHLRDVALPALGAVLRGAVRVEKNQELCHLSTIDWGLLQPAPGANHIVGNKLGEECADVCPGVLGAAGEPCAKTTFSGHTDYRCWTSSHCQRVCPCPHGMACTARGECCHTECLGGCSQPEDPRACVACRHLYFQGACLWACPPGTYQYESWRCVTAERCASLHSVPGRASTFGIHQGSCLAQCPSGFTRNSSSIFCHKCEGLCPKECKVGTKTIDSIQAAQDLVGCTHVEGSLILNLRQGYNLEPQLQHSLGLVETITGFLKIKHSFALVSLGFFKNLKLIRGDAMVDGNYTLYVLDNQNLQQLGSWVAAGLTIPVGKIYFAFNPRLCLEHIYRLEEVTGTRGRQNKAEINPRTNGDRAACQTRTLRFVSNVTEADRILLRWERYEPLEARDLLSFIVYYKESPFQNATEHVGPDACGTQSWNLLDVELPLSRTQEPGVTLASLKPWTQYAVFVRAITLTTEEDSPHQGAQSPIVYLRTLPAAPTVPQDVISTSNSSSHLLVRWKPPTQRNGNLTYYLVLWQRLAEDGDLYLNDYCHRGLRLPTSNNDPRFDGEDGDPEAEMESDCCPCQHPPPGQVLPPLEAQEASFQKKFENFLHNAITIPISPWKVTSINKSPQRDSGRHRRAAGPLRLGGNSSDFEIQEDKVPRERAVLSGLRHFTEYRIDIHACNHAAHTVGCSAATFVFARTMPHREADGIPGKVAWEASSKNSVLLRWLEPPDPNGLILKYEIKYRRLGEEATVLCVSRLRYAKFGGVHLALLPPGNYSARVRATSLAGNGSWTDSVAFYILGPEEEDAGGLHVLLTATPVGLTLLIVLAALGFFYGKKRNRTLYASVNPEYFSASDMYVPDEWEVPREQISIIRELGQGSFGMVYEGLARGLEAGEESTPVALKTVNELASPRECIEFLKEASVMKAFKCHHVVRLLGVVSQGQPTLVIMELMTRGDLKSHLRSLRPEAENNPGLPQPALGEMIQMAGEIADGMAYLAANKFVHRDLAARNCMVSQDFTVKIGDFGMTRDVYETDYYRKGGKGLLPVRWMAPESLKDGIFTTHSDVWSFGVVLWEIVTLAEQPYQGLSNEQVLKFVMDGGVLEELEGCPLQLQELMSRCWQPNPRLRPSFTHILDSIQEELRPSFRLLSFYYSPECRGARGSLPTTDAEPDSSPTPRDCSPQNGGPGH

SMILES	kinase-Nluc reporter destabilization hit call (EGFR)	kinase-Nluc reporter destabilization hit call (EGFR_G719S)	kinase-Nluc reporter destabilization hit call (EGFR_G719S_T790M)	kinase-Nluc reporter destabilization hit call (EGFR_L718V)	kinase-Nluc reporter destabilization hit call (EGFR_L858R)	kinase-Nluc reporter destabilization hit call (EGFR_L861Q)	kinase-Nluc reporter destabilization hit call (EGFR_T790M)	kinase-Nluc reporter destabilization hit call (EPHA2)	kinase-Nluc reporter destabilization hit call (ERBB3)	kinase-Nluc reporter destabilization hit call [1]	kinase-Nluc reporter destabilization hit call (ERN1)	kinase-Nluc reporter destabilization hit call (FGFR1)	kinase-Nluc reporter destabilization hit call (FGFR2)	kinase-Nluc reporter destabilization hit call (FGFR3)	kinase-Nluc reporter destabilization hit call (FGR)	kinase-Nluc reporter destabilization hit call (FLT3)	kinase-Nluc reporter destabilization hit call (FYN)	kinase-Nluc reporter destabilization hit call (GSK3A)	kinase-Nluc reporter destabilization hit call (HER2)	kinase-Nluc reporter destabilization hit call (INSRR)
Cc1cnc(Cl)nc1-c1ccc(N(Cc2ccc(CNC(=O)C(F)F)cc2)C(=O)c2ccc(O)cc2O)cc1 (10 µM)	inactive: 0	inactive: 0	inactive: 0	inactive: 0	inactive: 0	inactive: 0	inactive: 0	inactive: 0	inactive: 0	inactive: 0	inactive: 0	inactive: 0	inactive: 0	inactive: 0	inactive: 0	inactive: 0	inactive: 0	inactive: 0	inactive: 0	inactive: 0
COc1ccc(-c2cc(=O)c3c(O)cc(O)cc3o2)cc1-c1c(O)cc(O)c2c(=O)cc(-c3ccc(O)cc3)oc12 [Bilobetin] (2.5 µM)	inactive: 0	inactive: 0	inactive: 0	inactive: 0	inactive: 0	inactive: 0	inactive: 0	inactive: 0	inactive: 0	inactive: 0	inactive: 0	inactive: 0	inactive: 0	inactive: 0	inactive: 0	inactive: 0	inactive: 0	inactive: 0	inactive: 0	inactive: 0
CC(ONC(=O)c1cc(C(F)(F)F)cc(C(F)(F)F)c1)C(=O)Nc1ccc(Cl)cc1 (configuration not stated) (2.5 µM)	inactive: 0	active: 1	inactive: 0	inactive: 0	inactive: 0	inactive: 0	inactive: 0	inactive: 0	inactive: 0	inactive: 0	inactive: 0	inactive: 0	inactive: 0	inactive: 0	inactive: 0	inactive: 0	inactive: 0	inactive: 0	active: 1	inactive: 0
N#Cc1cnc(Nc2cc(NC[C@H]3CNCCO3)c(C(F)(F)F)cn2)cn1 (10 µM)	inactive: 0	inactive: 0	inactive: 0	inactive: 0	inactive: 0	inactive: 0	inactive: 0	inactive: 0	inactive: 0	inactive: 0	inactive: 0	inactive: 0	inactive: 0	inactive: 0	inactive: 0	–	inactive: 0	inactive: 0	inactive: 0	inactive: 0
N#CC(=C(/N)Sc1ccccc1N)/C(C#N)=C(\N)Sc1ccccc1N (10 µM)	inactive: 0	inactive: 0	inactive: 0	inactive: 0	inactive: 0	inactive: 0	inactive: 0	inactive: 0	inactive: 0	inactive: 0	inactive: 0	inactive: 0	inactive: 0	inactive: 0	inactive: 0	inactive: 0	inactive: 0	inactive: 0	inactive: 0	inactive: 0
N#Cc1cc(N2CCC(C(=O)N3N=CC[C@H]3c3cc(F)cc(F)c3)CC2)ncn1 (10 µM)	inactive: 0	inactive: 0	inactive: 0	inactive: 0	inactive: 0	inactive: 0	inactive: 0	inactive: 0	inactive: 0	inactive: 0	inactive: 0	inactive: 0	inactive: 0	inactive: 0	inactive: 0	inactive: 0	inactive: 0	inactive: 0	inactive: 0	inactive: 0
CN1CCN(Cc2ccc(-c3cn(C4CCC(O)CC4)c4nc(NCCC5CC5)ncc34)cc2)CC1 (configuration not stated) (2.5 µM)	inactive: 0	inactive: 0	inactive: 0	inactive: 0	inactive: 0	inactive: 0	inactive: 0	inactive: 0	inactive: 0	inactive: 0	inactive: 0	inactive: 0	inactive: 0	inactive: 0	inactive: 0	–	inactive: 0	inactive: 0	inactive: 0	inactive: 0
CCCCC(=O)OCC(=O)[C@]1(O)Cc2c(O)c3c(c(O)c2[C@@H](O[C@H]2C[C@H](NC(=O)C(F)(F)F)[C@H](O)[C@H](C)O2)C1)C(=O)c1c(OC)cccc1C3=O [Valrubicin] (10 µM)	inactive: 0	inactive: 0	inactive: 0	inactive: 0	inactive: 0	inactive: 0	inactive: 0	inactive: 0	inactive: 0	inactive: 0	inactive: 0	inactive: 0	inactive: 0	inactive: 0	inactive: 0	inactive: 0	inactive: 0	inactive: 0	inactive: 0	inactive: 0
CN1CCN(c2ccc(-c3ccncc3-c3cc(F)c(O)c(F)c3)cc2)CC1 (10 µM)	inactive: 0	inactive: 0	inactive: 0	inactive: 0	inactive: 0	inactive: 0	inactive: 0	inactive: 0	inactive: 0	inactive: 0	inactive: 0	inactive: 0	inactive: 0	inactive: 0	inactive: 0	inactive: 0	inactive: 0	inactive: 0	inactive: 0	inactive: 0
CO[C@@H]1[C@H](N(C)C(=O)c2ccccc2)C[C@H]2O[C@]1(C)n1c3ccccc3c3c4c(c5c6ccccc6n2c5c31)C(=O)NC4 [Midostaurin] (2.5 µM)	inactive: 0	inactive: 0	inactive: 0	inactive: 0	inactive: 0	inactive: 0	inactive: 0	inactive: 0	inactive: 0	inactive: 0	inactive: 0	inactive: 0	inactive: 0	inactive: 0	inactive: 0	–	inactive: 0	inactive: 0	inactive: 0	inactive: 0
Cc1n[nH]c2ncc(C(=O)N3CCC[C@H]3c3ccc(Cl)cc3)cc12 (10 µM)	inactive: 0	inactive: 0	inactive: 0	inactive: 0	inactive: 0	inactive: 0	inactive: 0	inactive: 0	inactive: 0	inactive: 0	inactive: 0	inactive: 0	inactive: 0	inactive: 0	inactive: 0	inactive: 0	inactive: 0	inactive: 0	inactive: 0	inactive: 0
Cc1nc(Nc2cnn(C3CCNCC3)c2)nc2c1N(C)C(=O)c1cc3ccccc3cc1N2C (2.5 µM)	inactive: 0	inactive: 0	inactive: 0	inactive: 0	inactive: 0	inactive: 0	inactive: 0	inactive: 0	inactive: 0	inactive: 0	inactive: 0	inactive: 0	inactive: 0	inactive: 0	inactive: 0	inactive: 0	inactive: 0	inactive: 0	inactive: 0	inactive: 0
Nc1[nH]nc2nnc(-c3c(-c4ccccc4)nn4ccccc34)cc12 (10 µM)	inactive: 0	inactive: 0	inactive: 0	inactive: 0	inactive: 0	inactive: 0	inactive: 0	inactive: 0	inactive: 0	inactive: 0	inactive: 0	inactive: 0	inactive: 0	inactive: 0	inactive: 0	inactive: 0	inactive: 0	inactive: 0	inactive: 0	inactive: 0
O=CN1CCN(c2ccc(C=C3C(=O)Nc4ccccc43)cc2)CC1 (10 µM)	inactive: 0	inactive: 0	inactive: 0	inactive: 0	inactive: 0	inactive: 0	inactive: 0	inactive: 0	inactive: 0	inactive: 0	inactive: 0	inactive: 0	inactive: 0	inactive: 0	inactive: 0	inactive: 0	inactive: 0	inactive: 0	inactive: 0	inactive: 0
N#C/C(=C/c1ccc(O)c(O)c1)C(=O)N1CCc2ccccc21 [Tyrphostin AG 528] (10 µM)	inactive: 0	inactive: 0	inactive: 0	inactive: 0	inactive: 0	inactive: 0	inactive: 0	inactive: 0	inactive: 0	inactive: 0	inactive: 0	inactive: 0	inactive: 0	inactive: 0	inactive: 0	inactive: 0	inactive: 0	inactive: 0	inactive: 0	inactive: 0
C=CC(=O)Nc1cc(Nc2nccc(-c3cn(C)c4ccccc34)n2)c(OCC(F)(F)F)nc1N(C)CCNC [AST5902  (trimesylate)] (2.5 µM)	inactive: 0	inactive: 0	inactive: 0	inactive: 0	inactive: 0	inactive: 0	inactive: 0	inactive: 0	inactive: 0	inactive: 0	inactive: 0	inactive: 0	inactive: 0	inactive: 0	inactive: 0	inactive: 0	inactive: 0	inactive: 0	inactive: 0	inactive: 0
C=CC(=O)N1CCC(c2ccc(C(N)=O)c(-c3ccc(Oc4ccccc4)cc3)n2)CC1 [Orelabrutinib] (2.5 µM)	inactive: 0	inactive: 0	inactive: 0	inactive: 0	inactive: 0	inactive: 0	inactive: 0	inactive: 0	inactive: 0	inactive: 0	inactive: 0	inactive: 0	inactive: 0	inactive: 0	inactive: 0	inactive: 0	inactive: 0	inactive: 0	inactive: 0	inactive: 0

Two consecutive entries already listed, for reference:
SMILES	kinase-Nluc reporter destabilization hit call (EGFR)	kinase-Nluc reporter destabilization hit call (EGFR_G719S)	kinase-Nluc reporter destabilization hit call (EGFR_G719S_T790M)	kinase-Nluc reporter destabilization hit call (EGFR_L718V)	kinase-Nluc reporter destabilization hit call (EGFR_L858R)	kinase-Nluc reporter destabilization hit call (EGFR_L861Q)	kinase-Nluc reporter destabilization hit call (EGFR_T790M)	kinase-Nluc reporter destabilization hit call (EPHA2)	kinase-Nluc reporter destabilization hit call (ERBB3)	kinase-Nluc reporter destabilization hit call [1]	kinase-Nluc reporter destabilization hit call (ERN1)	kinase-Nluc reporter destabilization hit call (FGFR1)	kinase-Nluc reporter destabilization hit call (FGFR2)	kinase-Nluc reporter destabilization hit call (FGFR3)	kinase-Nluc reporter destabilization hit call (FGR)	kinase-Nluc reporter destabilization hit call (FLT3)	kinase-Nluc reporter destabilization hit call (FYN)	kinase-Nluc reporter destabilization hit call (GSK3A)	kinase-Nluc reporter destabilization hit call (HER2)	kinase-Nluc reporter destabilization hit call (INSRR)
CN1CCN(c2ccc(-c3ccncc3-c3cc(F)c(O)c(F)c3)cc2)CC1 (10 µM)	inactive: 0	inactive: 0	inactive: 0	inactive: 0	inactive: 0	inactive: 0	inactive: 0	inactive: 0	inactive: 0	inactive: 0	inactive: 0	inactive: 0	inactive: 0	inactive: 0	inactive: 0	inactive: 0	inactive: 0	inactive: 0	inactive: 0	inactive: 0
CO[C@@H]1[C@H](N(C)C(=O)c2ccccc2)C[C@H]2O[C@]1(C)n1c3ccccc3c3c4c(c5c6ccccc6n2c5c31)C(=O)NC4 [Midostaurin] (2.5 µM)	inactive: 0	inactive: 0	inactive: 0	inactive: 0	inactive: 0	inactive: 0	inactive: 0	inactive: 0	inactive: 0	inactive: 0	inactive: 0	inactive: 0	inactive: 0	inactive: 0	inactive: 0	–	inactive: 0	inactive: 0	inactive: 0	inactive: 0

Source: the supplement of paper PMC12823440, “Inhibitors supercharge kinase turnover through native proteolytic circuits” (Nature, 2025)
